For some assays here: Where cells or extracts were used, other partners may take part. Where a protein sequence is shown, tags need not be part of it.
Tests used:
[1] = molecular target: T1, CD166 (ALCAM) on A2780-SP ovarian cancer stem cells (Homo sapiens) (UniProt Q13740); test: flow cytometry; settings: N = 5-(N-naphthylcarboxyamide)-2'-deoxyuridine (NapdU) at every N, 500 nM aptamer, room temperature, protein on the cell surface, protein details: endogenous, A2780-SP cell line (high CD166), single-stranded DNA
T1 sequence (looked up, limits assumed): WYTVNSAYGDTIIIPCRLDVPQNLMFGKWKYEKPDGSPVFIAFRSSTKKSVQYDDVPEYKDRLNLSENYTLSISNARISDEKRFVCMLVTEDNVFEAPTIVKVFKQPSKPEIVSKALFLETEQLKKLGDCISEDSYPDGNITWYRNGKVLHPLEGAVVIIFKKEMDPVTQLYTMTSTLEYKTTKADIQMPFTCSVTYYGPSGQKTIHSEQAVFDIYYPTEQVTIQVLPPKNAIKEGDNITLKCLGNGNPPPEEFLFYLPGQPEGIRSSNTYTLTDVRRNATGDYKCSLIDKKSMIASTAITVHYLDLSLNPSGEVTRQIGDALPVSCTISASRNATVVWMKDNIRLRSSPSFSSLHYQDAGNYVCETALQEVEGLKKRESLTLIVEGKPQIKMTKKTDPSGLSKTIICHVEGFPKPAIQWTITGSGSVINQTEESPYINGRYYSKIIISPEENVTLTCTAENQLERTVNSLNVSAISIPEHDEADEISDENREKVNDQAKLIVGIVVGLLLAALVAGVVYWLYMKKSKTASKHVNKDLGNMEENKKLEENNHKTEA

[2] = molecular target: T2, CD166 (ALCAM) on mesenchymal stem cells (UniProt Q13740); test: flow cytometry; settings: N = 5-(N-naphthylcarboxyamide)-2'-deoxyuridine (NapdU) at every N; 500 nM aptamer, room temperature; similar to anti-CD166 antibody; protein on the cell …; protein details: endogenous, normal mesenchymal stem cells; single-stranded DNA
T2 sequence (looked up, limits assumed): T1 sequence (looked up, limits assumed)

[3] = molecular target: T1, CD166 (ALCAM) on A2780-SP ovarian cancer stem cells (Homo sapiens); test: activity in cells; settings: N = 5-(N-naphthylcarboxyamide)-2'-deoxyuridine (NapdU) at every N, protein on the cell surface, protein details: endogenous, A2780-SP cell line (high CD166), single-stranded DNA

## TCAGCCGCCAGCCAGTTCATTTGATAAAGCTCCGTTATCGGGCCCCTTGTAGAGTCATGACCAGAGCACCACAGAG [AT5 (clone 5)]
[1]; strongest binder of the six, similar to anti-CD166 …
  binding result: binds
[2]
  binding result: binds
[3]; reduced adhesion, proliferation, paclitaxel resistance, migration, p-PAXILLIN/p-SRC/p-FAK Y925 and tumor formation, dose not given here
  functional effect of the aptamer: active

## TCAGCCGCCAGCCAGTTCCTTCTAGAGTCATGCACGTTATCGGACCTGTCGGCGAATGGACCATATCACCACAGAG [AT4 (clone 4)]
[1]; called high affinity in Example 9
  binding result: binds
[3]; 500 nM aptamer 1 h, reduced cell adhesion to collagen of CD166+ ovarian cancer stem cells
  functional effect of the aptamer: active

— patent US12674167B2, “Aptamer specifically binding to cancer stem cells, and use thereof” (HiCELL Tech, priority 2019, dated 2026)
